The exact form of at least one protein or probe is not confirmed. Results from cells or extracts need not show a direct contact. At least one verdict rests on a figure or table, not on a statement of the authors. Protein sequences can lack the tags named with them.
Molecular target: T1, SOX9 (UniProt P48436)
T1 sequence (looked up, limits assumed): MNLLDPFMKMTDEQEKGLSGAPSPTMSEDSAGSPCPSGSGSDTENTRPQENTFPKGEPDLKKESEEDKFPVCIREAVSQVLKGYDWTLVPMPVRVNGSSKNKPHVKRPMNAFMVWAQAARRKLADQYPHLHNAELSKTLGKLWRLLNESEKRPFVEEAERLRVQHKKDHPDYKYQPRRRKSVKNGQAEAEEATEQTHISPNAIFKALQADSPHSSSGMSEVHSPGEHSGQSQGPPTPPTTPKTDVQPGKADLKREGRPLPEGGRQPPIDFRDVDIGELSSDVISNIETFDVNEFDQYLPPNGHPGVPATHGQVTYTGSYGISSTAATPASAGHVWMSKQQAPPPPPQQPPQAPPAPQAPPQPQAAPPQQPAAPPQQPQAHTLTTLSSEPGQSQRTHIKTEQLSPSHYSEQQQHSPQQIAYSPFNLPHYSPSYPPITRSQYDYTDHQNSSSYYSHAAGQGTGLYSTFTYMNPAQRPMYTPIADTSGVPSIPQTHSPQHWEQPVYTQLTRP
Assay: EMSA
Settings: Beyotime LightShift chemiluminescent EMSA kit, manufacturer's instructions; pH and temperature not stated; protein in an extract

AACTACCAAAATTGACAACAATAGTGTTTACTTCCACCTT (double strand) [COL10A1 promoter SOX9 probe]
binding result: binds
